From patent US20110217318A1
These are yes or no findings as the source states them, for the method shown. Some results given as binding are weak or reduced against the parent protein; the word gives no strength.

The chains behind the UniProt entries cited, without tags or fusion partners. Where a name states a change or a piece, a line headed by the entry shows the natural chain unless it says otherwise. Residues count along the entry.
UniProt Q9HCN6, residues 21-339: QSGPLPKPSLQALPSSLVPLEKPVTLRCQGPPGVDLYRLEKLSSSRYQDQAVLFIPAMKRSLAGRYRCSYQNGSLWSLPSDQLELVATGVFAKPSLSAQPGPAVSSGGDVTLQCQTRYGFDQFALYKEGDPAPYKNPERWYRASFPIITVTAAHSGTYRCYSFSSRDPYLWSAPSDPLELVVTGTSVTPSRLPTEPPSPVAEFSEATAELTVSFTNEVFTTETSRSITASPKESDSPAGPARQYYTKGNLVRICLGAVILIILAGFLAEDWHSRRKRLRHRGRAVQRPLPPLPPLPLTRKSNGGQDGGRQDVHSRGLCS
UniProt P01591: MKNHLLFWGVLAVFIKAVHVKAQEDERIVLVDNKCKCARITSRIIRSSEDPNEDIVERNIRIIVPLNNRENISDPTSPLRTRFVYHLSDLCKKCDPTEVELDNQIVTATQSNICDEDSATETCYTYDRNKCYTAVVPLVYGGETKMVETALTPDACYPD

Key:
[1] = target: human GPVI extracellular region-human Fc fusion protein (hGPVI-hFc) (human); test: ELISA on immobilised hGPVI-hFc, anti-human mu chain detection
[2] = target: human platelet membrane glycoprotein VI (GPVI) on human platelets (human) (UniProt Q9HCN6); test: flow cytometry on platelets, 3-4 µg/mL

binding [1]: binds
binding [2]: binds
Substance: cF1232-37-2 (IgM) (mouse/human chimeric IgM-type F1232-37-2) (from UniProt P01591 23-159) (antibody)
